The campaign covered roughly 1,100 compounds. About 150 (14%) were called active. About 1% were inconclusive and are not listed.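 Rule for the calls: active = inhibition above about 50% in both repeat tests (limit read from the data); inconclusive = one repeat under the set limit, the other over it; inactive = both repeats under the set limit.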 This is a selection; strong and weak results do not stand in their true shares.

This experiment in a line: Leishmania major promastigote growth inhibition, confirmation, 1 µM repeat of primary hits (AID 1258). The conditions noted are these: L. major promastigote growth, resazurin fluorescence, 48 h; at 1 µM; hits give high values. The method in brief: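 System: Leishmania major promastigotes, whole-parasite viability assay; Quantity: 5,000 promastigotes per well; Buffer or medium: medium 199 plus 10% heat-inactivated FBS; Compound: 1 µM single concentration; Incubation: 44 h compound exposure, 4 h dye incubation, 28 °C; Read-out: promastigote viability inhibition; Controls: DMSO high/low controls plus tamoxifen reference.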
As for `Cc1nc2ccccn2c1P(=S)(N1CCCCC1)N1CCCCC1`, the inhibition was inactive: -20.1%.

As for `C[N+]12CN3CN(CN(C3)C1)C2`, the inhibition is inactive: -12.4%.

Values taken from PubChem BioAssay AID1258 (University of Pittsburgh Molecular Library Screening Center, 2008).
